Pks13 thioesterase: 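Polyketide synthase Pks13, Mycobacterium tuberculosis (UniProt I6X8D2). Enzyme assay of the thioesterase domain of polyketide synthase 13; the read-out is not stated. Concentration: 30 µM. Higher reads as stronger inhibition (inferred from which compounds were picked for retests). Of about 67,000 compounds tested this way, about 300 (0.46%) reached 50% or more in at least one test.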
TcHisRS: 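Histidine-tRNA ligase, Trypanosoma cruzi CL Brener (UniProt Q4DA54). Enzyme assay of histidyl-tRNA synthetase; the read-out is not stated. Concentration: 30 µM. The record gives no direction; compounds that gave an IC50 in retests scored well above the rest, so higher reads as stronger inhibition. Of about 69,000 compounds tested this way, about 31 (0.045%) reached 50% or more in at least one test.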

Chains of the proteins cited; added tags and fusions are not shown. Residues count along the entry.
UniProt I6X8D2, whole entry: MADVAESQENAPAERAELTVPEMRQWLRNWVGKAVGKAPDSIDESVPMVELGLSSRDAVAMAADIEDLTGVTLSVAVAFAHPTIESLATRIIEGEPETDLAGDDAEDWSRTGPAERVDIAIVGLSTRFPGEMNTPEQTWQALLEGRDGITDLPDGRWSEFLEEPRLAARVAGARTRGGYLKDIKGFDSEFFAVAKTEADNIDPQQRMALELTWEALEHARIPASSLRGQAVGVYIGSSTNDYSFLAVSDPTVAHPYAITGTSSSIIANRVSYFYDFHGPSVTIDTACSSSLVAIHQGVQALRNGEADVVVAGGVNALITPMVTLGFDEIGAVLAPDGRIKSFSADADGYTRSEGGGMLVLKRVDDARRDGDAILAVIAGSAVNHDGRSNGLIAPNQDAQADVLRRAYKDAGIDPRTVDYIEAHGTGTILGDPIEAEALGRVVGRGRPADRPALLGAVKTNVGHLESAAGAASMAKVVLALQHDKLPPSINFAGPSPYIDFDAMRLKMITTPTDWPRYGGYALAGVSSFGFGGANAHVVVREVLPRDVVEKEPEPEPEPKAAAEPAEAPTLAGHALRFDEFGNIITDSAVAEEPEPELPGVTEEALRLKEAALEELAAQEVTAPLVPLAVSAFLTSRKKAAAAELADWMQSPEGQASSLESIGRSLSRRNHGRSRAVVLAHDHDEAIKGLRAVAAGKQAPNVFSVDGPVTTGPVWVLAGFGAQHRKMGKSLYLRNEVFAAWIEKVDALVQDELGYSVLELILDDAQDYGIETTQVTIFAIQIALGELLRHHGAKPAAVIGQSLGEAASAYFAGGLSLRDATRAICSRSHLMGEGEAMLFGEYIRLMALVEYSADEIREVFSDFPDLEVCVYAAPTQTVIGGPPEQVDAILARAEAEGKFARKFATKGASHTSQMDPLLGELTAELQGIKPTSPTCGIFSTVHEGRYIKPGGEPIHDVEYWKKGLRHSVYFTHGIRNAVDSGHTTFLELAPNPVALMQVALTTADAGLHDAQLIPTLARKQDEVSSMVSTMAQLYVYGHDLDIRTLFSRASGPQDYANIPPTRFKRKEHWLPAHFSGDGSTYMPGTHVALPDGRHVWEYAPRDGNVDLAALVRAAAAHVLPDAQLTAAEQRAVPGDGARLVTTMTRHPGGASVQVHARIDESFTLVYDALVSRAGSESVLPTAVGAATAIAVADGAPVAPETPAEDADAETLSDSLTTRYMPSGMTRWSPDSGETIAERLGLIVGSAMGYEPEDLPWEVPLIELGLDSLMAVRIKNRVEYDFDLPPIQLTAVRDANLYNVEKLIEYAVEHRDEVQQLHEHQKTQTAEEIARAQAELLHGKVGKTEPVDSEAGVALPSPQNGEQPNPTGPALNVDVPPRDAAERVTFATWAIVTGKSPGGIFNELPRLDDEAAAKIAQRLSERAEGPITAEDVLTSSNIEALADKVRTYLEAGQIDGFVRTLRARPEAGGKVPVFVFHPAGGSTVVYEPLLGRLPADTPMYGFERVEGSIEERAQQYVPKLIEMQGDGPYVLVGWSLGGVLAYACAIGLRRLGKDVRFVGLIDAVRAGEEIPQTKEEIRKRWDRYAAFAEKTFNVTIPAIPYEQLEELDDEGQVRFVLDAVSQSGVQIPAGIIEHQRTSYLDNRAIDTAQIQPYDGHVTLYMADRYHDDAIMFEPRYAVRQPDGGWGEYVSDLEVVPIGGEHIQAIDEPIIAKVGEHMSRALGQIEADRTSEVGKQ
UniProt Q4DA54, 1-478: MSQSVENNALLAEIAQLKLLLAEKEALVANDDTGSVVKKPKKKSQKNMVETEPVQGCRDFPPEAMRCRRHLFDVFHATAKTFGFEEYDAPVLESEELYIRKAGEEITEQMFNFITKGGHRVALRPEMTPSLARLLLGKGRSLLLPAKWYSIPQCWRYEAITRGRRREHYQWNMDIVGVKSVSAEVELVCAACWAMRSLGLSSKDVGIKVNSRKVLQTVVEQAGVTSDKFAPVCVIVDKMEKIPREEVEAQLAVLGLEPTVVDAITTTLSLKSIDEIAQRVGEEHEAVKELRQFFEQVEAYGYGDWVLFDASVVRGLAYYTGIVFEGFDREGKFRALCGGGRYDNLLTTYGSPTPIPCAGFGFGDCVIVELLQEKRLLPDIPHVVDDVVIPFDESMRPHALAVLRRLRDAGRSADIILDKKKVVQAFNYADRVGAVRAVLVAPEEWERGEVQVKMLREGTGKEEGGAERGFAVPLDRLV

Each number is a percent effect as filed.
The controls that fix the scale are not given in the record; negative values are as filed.
Compounds were drawn at random from those tested, without regard to their results.

With Cn1c(Nc2ccc(F)cc2)c(C#N)c(=O)n(C)c1=O the screen gave Pks13 thioesterase: -33.27%; TcHisRS: -8.14%.
With CC(C)(C)c1nccc(N2CCC(OCCN3CCCCC3)C2)n1 (configuration not stated) the screen gave Pks13 thioesterase: 0.3241%; TcHisRS: 5.747%.
With Nc1nc(Sc2cccs2)cc(N2CC[C@H](CO)[C@H](O)C2)n1 the screen gave Pks13 thioesterase: -15.04%; TcHisRS: 1.288%.
With CCCOCCOC(=O)c1ccc2c(c1)[nH]c(=O)n2C the screen gave Pks13 thioesterase: -1.217%; TcHisRS: 2.532%.
With Cn1ccnc1CN1CCC2(CC1)CN(CC1CC1)C(=O)CO2 the screen gave Pks13 thioesterase: 2.384%; TcHisRS: 1.087%.
With COc1ncc(C2(O)CCN(Cc3ccc(F)c(F)c3)CC2)c(OC)n1 the screen gave Pks13 thioesterase: 0.09457%; TcHisRS: 8.791%.
With COCCc1ncc(CNC2(c3ccc(Cl)cc3)CC2)cn1 the screen gave Pks13 thioesterase: -22.46%; TcHisRS: 5.224%.
With Cn1ncc(C(=O)OCC2CCN(c3ccccc3)C2)c1C(F)F (configuration not stated) the screen gave Pks13 thioesterase: 11.38%; TcHisRS: -0.4926%.
With Cc1nccnc1CCC1COCCN1C(=O)CCc1c(C)noc1C (configuration not stated) the screen gave Pks13 thioesterase: -15.35%; TcHisRS: 6.154%.
With C=Cn1cc(CN2CCC(c3ncc(Cl)cc3S(C)(=O)=O)CC2)c(C)n1 the screen gave Pks13 thioesterase: 9.032%; TcHisRS: 5.085%.
With Nc1cc(-c2cc(O)cc(C(=O)O)c2)c2cc[nH]c2n1 the screen gave Pks13 thioesterase: 3.248%; TcHisRS: 9.827%.
With COc1ccc2c(c1)C(=O)N(C)C1(CCN(C(=O)OC(C)(C)C)CC1)N2 the screen gave Pks13 thioesterase: -43.54%; TcHisRS: 4.902%.
With COc1ccc(CN2CC(n3cccn3)C2)cc1F the screen gave Pks13 thioesterase: -42.77%; TcHisRS: 8.287%.
With OC1CCN(CCCNc2ncccn2)CC1 the screen gave Pks13 thioesterase: -1.213%; TcHisRS: 4%.
With O=C(CC1COCCN1)N1CCCN(C2Cc3ccccc3C2)CC1 (configuration not stated) the screen gave Pks13 thioesterase: 1.008%; TcHisRS: 7.937%.
With CCCN1CCC(Cc2noc(-c3cccnc3OC)n2)CC1 the screen gave Pks13 thioesterase: -11.01%; TcHisRS: 8.081%.
With Cc1sc2nc(CCN)nc(N(CCN(C)C)CC3CCCO3)c2c1C (configuration not stated) the screen gave Pks13 thioesterase: -2.673%; TcHisRS: -0.8%.
With CN(Cc1ccncc1)C1COC2(CCN(Cc3nccn3C)CC2)C1 (configuration not stated) the screen gave Pks13 thioesterase: 7.46%; TcHisRS: 5.785%.
With CC1c2ncc(COCC3CC3)n2CCN1C (configuration not stated) the screen gave Pks13 thioesterase: -4.071%; TcHisRS: 9.091%.
With CC(C)CN1CCn2nc(CNc3ncnc4[nH]cnc34)cc2C1 the screen gave Pks13 thioesterase: -12.2%; TcHisRS: -1.026%.
With CCN(CCS(=O)(=O)CC)CC1CCCO1 (configuration not stated) the screen gave Pks13 thioesterase: -36.5%; TcHisRS: 2.941%.
With COc1ccc(S(=O)(=O)NCC(O)c2sccc2C)cc1C (configuration not stated) the screen gave Pks13 thioesterase: -45.6%; TcHisRS: 5.155%.
With Cc1cnc(CCNC(=O)C2CN(C(=O)Cc3ccc(F)cc3)C2)s1 the screen gave Pks13 thioesterase: -22.9%; TcHisRS: 7.576%.
With CCc1nnc2n1CCN(Cc1csc(-c3ncccn3)n1)C2 the screen gave Pks13 thioesterase: -20.12%; TcHisRS: 1.058%.
With O=C(c1cccc2c1OCO2)N1CCCCC1Cn1cccn1 (configuration not stated) the screen gave Pks13 thioesterase: -8.824%; TcHisRS: -14.29%.
With CNC(=O)CN1CCC(NC(=O)Cn2cc(C)c3ccccc32)CC1 the screen gave Pks13 thioesterase: -19.43%; TcHisRS: 5.291%.
With COc1ccccc1OCc1cc(C(=O)N2CCOCC2CO)n[nH]1 (configuration not stated) the screen gave Pks13 thioesterase: -34.56%; TcHisRS: 3.175%.
With O=C1CCN(Cc2cnc3c(-c4ccccc4)cnn3c2)CCN1 the screen gave Pks13 thioesterase: -39.04%; TcHisRS: 4.372%.
With CCN(Cc1cc(F)ccc1Cl)C1CCS(=O)(=O)C1 (configuration not stated) the screen gave Pks13 thioesterase: -1.935%; TcHisRS: 5.128%.
With CCOC(=O)C1CCN(Cc2c(O)ccc3oc4c(c23)CCCC4)CC1 the screen gave Pks13 thioesterase: 19.36%; TcHisRS: -3.896%.
With Cc1ccc(CC(=O)Nc2ccc(CS(C)(=O)=O)c(F)c2)cc1 the screen gave Pks13 thioesterase: 6.347%; TcHisRS: 7.216%.
With Cc1nnc2n1CCN(C(=O)CN1C(=O)CSc3ccccc31)C2 the screen gave Pks13 thioesterase: -36.46%; TcHisRS: 1.571%.
With Cn1nc(C(C)(C)C)cc1NC(=O)Cn1ccccc1=O the screen gave Pks13 thioesterase: -2.012%; TcHisRS: 5.882%.
With O=C1NCCN1C1CCN(Cc2ccccn2)CC1 the screen gave Pks13 thioesterase: -14.19%; TcHisRS: -1.667%.
With Cc1ccc(NC(=O)N2CCN(Cc3noc(C4CC4)n3)CC2)cc1 the screen gave Pks13 thioesterase: -11.46%; TcHisRS: 1.128%.
With O=C(c1ccc2[nH]nnc2c1)N1CC[C@H](O)[C@]2(CCCO2)C1 the screen gave Pks13 thioesterase: -34.86%; TcHisRS: 7.28%.
With CC(Cn1cccn1)n1cnc2cccc(Cl)c2c1=O (configuration not stated) the screen gave Pks13 thioesterase: -12.61%; TcHisRS: -0.8%.

For reference, 4 entries once more:

| structure | Pks13 thioesterase | TcHisRS |
|---|---|---|
| `Cn1ccnc1CN1CCC2(CC1)CN(CC1CC1)C(=O)CO2` | 2.384% | 1.087% |
| `Cc1cnc(CCNC(=O)C2CN(C(=O)Cc3ccc(F)cc3)C2)s1` | -22.9% | 7.576% |
| `CC1c2ncc(COCC3CC3)n2CCN1C` (configuration not stated) | -4.071% | 9.091% |
| `O=C1CCN(Cc2cnc3c(-c4ccccc4)cnn3c2)CCN1` | -39.04% | 4.372% |

Source: ChEMBL document CHEMBL3988442, “University of Dundee, Small-Polar-MMV Screening Library” (2021).